Data as given in patent US9278065B2, “Delivery systems for solubilising water-insoluble pharmaceutical active ingredients” (EMS S/A, priority 2007, dated 2016).
At least one structure is not confirmed: it was looked up by name or label, or the drawing left a doubt.

Experiment: Particle size (Z-average) of the formulation mixed with water 1:50
Format: physicochemical
Conditions: 0.1% sirolimus in ethanol with DEGEE / PEG Oleate / polyethoxylated castor oil as per Table 4; diluted 1:50 in water
Procedure: The formulation according to present invention is prepared when the non-ionic surfactant mixture is thoroughly mixed with the solution of the active ingredient in the water-miscible organic solvent/co-solvent.
The present invention will now be illustrated by the following examples. It is understood, however, that such examples are provided for illustration only, and the invention is not intended to be limited by the examples. The formulation based on the system employed in the examples can be formed by any suitable method known in the art. In the examples the formulation was mixed with water at a ratio of 1:50 formulation: water to generate the system and measure the particle size formed in water. The particle size was measured by the method described in Pharmacopea Forum—2001 vol 27 (4) page 2724.

CO[C@H]1C[C@@H]2CC[C@@H](C)[C@@](O)(O2)C(=O)C(=O)N2CCCC[C@H]2C(=O)O[C@H]([C@H](C)C[C@@H]2CC[C@@H](O)[C@H](OC)C2)CC(=O)[C@H](C)/C=C(\C)[C@@H](O)[C@@H](OC)C(=O)[C@H](C)C[C@H](C)/C=C/C=C/C=C/1C [sirolimus] showed a Z-average of 35 nm.
